Measurements as given in PubChem BioAssay AID1347423 (Functional Genomics Laboratory (NCATS/FGL), 2020).
Hit rate of the full screen: of about 52,000 sequences, about 210 (0.4%) were called active.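 Rule for the calls: active = gene whose silencing raises cell survival under the drug, median off-target-corrected z-score across its silencing RNAs 2 or more; inactive = the rest.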 The list shows a part of the results.

Assay: Resistance to Poly (ADP-Ribose) Polymerase inhibitor: Gene Identification via Genome-wide siRNA Screen
Settings: mouse BRCA2 R2336H ES cells, olaparib, CellTiter-Glo viability; stronger effect = higher value
Summary of the method: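 Mouse BRCA2 R2336H ES cells were reverse-transfected with siRNA (20 nM final), treated at 48 h with 500 nM olaparib, and read by CellTiter-Glo after 72 h. Scores: MAD-based z per siRNA, median per gene, seed off-target correction.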

Sequence	z-score
GGGAGUUCAAGCCAGUUAUTT against D11Ertd18e	inactive: -0.335
GGUGUCUUCAAGAGUCAUUTT against D3Ucla1	inactive: -1.53
CGAUGUGAUGAUUUAGAAGTT against Itgb1	inactive: 0.222
GGUAAAAUUGUCCAAGGAATT against Dcl1	inactive: 0.562
GGUCGUGCGAUCCACAGAUTT against Ltap	inactive: 0.191
GCGACACAGUAUGCUUAAGTT against Zfp403	inactive: -0.417
GGUGCAUGACCUGACAAAGTT against BC032204	inactive: 1.28
CGGACUAAGUUUCAAAUCGTT against Pcdha2	inactive: -0.594
AGAGGCUGGUAAGAAAAAATT against Olfr130	inactive: 0.318
GGACUUGCUUUGGACACAUTT against Cd164l1	inactive: -0.611
CCAAUCAUGGACUUUAUAATT against 4921522K05Rik	inactive: -1.01
CCAAUGUGGUCAAGGUAAUTT against AI987944	inactive: 1.6
GGUGGGAUGAUCAUAAGUUTT against Ppnr	inactive: -0.289
GCAGCAGGAAGGAUCAUUCTT against Ly6h	inactive: -0.805
GGUCAAGCAGCUGACCCAATT against A930017N06Rik	inactive: 0.622
GCGUGUGAGUGUGAAGGAATT against Gpr81	inactive: -1.53
CCUCUUUCGACAAGAGCUCTT against Atp1a3	inactive: -0.132
GGAUCUCAAAGAUACAGGATT against Mcpt1	inactive: 1.22
GGCAAGAGAUCAUAAACUGTT against C230078M08Rik	inactive: -1.91
CGACAUCAGUUAAAAACGATT against Aebp2	inactive: 0.5
GCACAUAUAAAGUUGGAAATT against Ehbp1	inactive: -0.377
CGUGGAAGCUGUGUUAUCUTT against 2010004A03Rik	inactive: 0.726
GCAAGAUCCGUACAUAGCATT against 8430408H12Rik	inactive: 2.75
GGGAUAUCGUUUGGUAUAGTT against Saa4	inactive: -2.57
GCUAAGCUAGAACAUGAAUTT against Mapre1	inactive: 2.23
GGAACUGCCCAGUUCUUAATT against Ppan	inactive: -1.52

Sequence	z-score
GCUCGUUGUCUAGUUUGGGTT against Ube4b	inactive: 0.186
GGUGCUCAUUUUAUUGAGATT against A530016O06Rik	inactive: 1.07
CCCUAAGUAUAGGAUCGGATT against H2afy	inactive: 3.21
GCAGAUUGGCGAUACCCUGTT against Alcam	inactive: -1.32
GCUCCACUUUGGAGUUGGATT against Trub2	inactive: -2.13
GGGCCAAUAAAGAGGACAGTT against Aanat	inactive: -1.54
GGUUCAAUAUGAAGUUGUUTT against 1700012F17Rik	inactive: -1.52
CCGUGAGAGUUUGGUGGUATT against Mcm2	inactive: -2.3
GCCUGAAUUUGUAAGCAGUTT against Fgf1	inactive: 0.159
GCAAGAUUGGAAUGCUCCATT against 3830403N18Rik	inactive: -2.35
GCAUGCAAUGUUUUUCGUATT against 4932701A20Rik	inactive: 0.624
GGGCAAGUUUCAUGGAAAUTT against Stat4	inactive: 0.749
GGAAUAAGUCGGGCUAUCUTT against Dffb	inactive: -0.744
GGAAUUCGGUUUCAGCUUCTT against Hs1bp1	inactive: 0.845
GGAUCAGUUGAUCUCAGUGTT against Olfr1406	inactive: -1.86
GGUACAUUGAGAACAACAGTT against Axin2	inactive: -0.0125
GGGUCUCUUCAGUUUUUUATT against Sfrs9	inactive: -1.01
CCGGUAUUGUGAGCAAAUUTT against MGC67168	inactive: 0.578
GGAAGCACUCAGUGCUCUGTT against Igfbp6	inactive: 0.255
GGUGGAAUUUUUGAAGUUUTT against 8030499H02Rik	inactive: 0.0409
CGAGAAACAGAGUAUCAAGTT against D530033C11Rik	inactive: -0.218
GGAAUCCUUUUGGAUAACATT against 6330411N01Rik	inactive: 0.662
GGUGCCAUUCAUCUUUCAATT against Tmprss3	inactive: -1.41
GGCAGGCAAUUCAAACAAUTT against Orm1	inactive: 0.924
GGUAUAAAGCAACUUACUATT against 5430435G22Rik	inactive: -0.922
GGGAAUCUUUAUCAGUGAGTT against 3830422K02Rik	inactive: -1.79

Laid out differently: results already given

| Sequence | z-score |
| --- | --- |
| CGACAUCAGUUAAAAACGATT against Aebp2 | inactive: 0.5 |
| GCACAUAUAAAGUUGGAAATT against Ehbp1 | inactive: -0.377 |
